From PubChem BioAssay AID504444 (National Center for Advancing Translational Sciences (NCATS), 2011)
Screen size: about 360,000 compounds; about 7,500 (2.1%) were called active. Inconclusive means that the source gave no clear call. Such entries were picked first, then a sample of the others. The call rests on the fitted dose curve; in most records, active means well fitted inhibition curve with a large enough effect; inconclusive means small, poorly fitted or top-dose-only effect, or effect the other way; inactive means flat fitted curve, though single readings scatter. A potency beside an inconclusive call is a rough fit, not a confirmed value.

Assay: Nrf2 qHTS screen for inhibitors; further: nearly all actives have a fitted effect of over 60% in size
Conditions: A549 ARE-Fluc reporter, luciferase luminescence, 18-24 h; series mostly up to 46 µM
How it was run: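 A549 ARE_Fluc cells (5000/well, 5% FBS OPTI-MEM) pre-incubated 2 h, then treated with compounds 18-24 h at 37C/5% CO2 in concentration-response. CellTiter-Fluor viability read first; BugLite luciferase luminescence after 15 min at room temperature gives Nrf2 activity.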
Potency means the concentration at half of the fitted maximal effect.

Row | SMILES | Potency
1 | COc1cccc(N2CCN(C(=O)c3ccccc3SCC(=O)NCc3ccco3)CC2)c1 | inconclusive: 10.3 µM [falling, partial curve, poor fit]
2 | C[N+]1(C2CCC3CCCC2C3O)CCCCC1 (stereo not given) | inconclusive: 20.6 µM [falling, single point]
3 | COc1ccccc1N(C(=O)c1snc(C(N)=O)c1N)C(C(=O)NC1CCCC1)c1ccc(N(C)C)cc1 (stereo not given) | inconclusive: 13 µM [falling, partial curve, poor fit]
4 | Cc1noc(/C=C/Nc2ccc(F)cc2F)c1[N+](=O)[O-] | inactive
5 | CCOC(=O)N/C(N)=N/c1nc2ccccc2s1 | inconclusive: 9.2 µM [activator, partial curve]
6 | COc1ccc(-c2nnc(NC(=O)C3CCCO3)s2)cc1 (stereo not given) | inactive
7 | CC(C)CNC(=O)c1cccc(NC(=O)COc2cccc([N+](=O)[O-])c2)c1 | inconclusive: 29.1 µM [falling, single point]
8 | O=C(c1ccco1)N1CCN(C(=O)N2c3ccccc3Sc3ccccc32)CC1 | inconclusive: 29.1 µM [falling, single point]
9 | COc1ccc(C(=O)C2CCN(C(=S)NCCc3ccc(OC)c(OC)c3)CC2)cc1 | active: 16.4 µM
10 | Cc1noc(C)c1C(=O)N1CCC(Cc2ccccc2)CC1 | inconclusive: 0.731 µM [falling, partial curve, poor fit]
11 | Cc1ccc(-n2c(O)c(/C=N/Nc3ccc(S(=O)(=O)N4CCOCC4)cc3[N+](=O)[O-])c3ccccc3c2=O)c(C)c1 | active: 18.4 µM
12 | O=C(/C=C/c1ccc(Cl)cc1)N1CCOCC1 | inconclusive: 20.6 µM [activator, single point]
13 | CCCNC(=O)CCC(=O)N1Cc2ccccc2Oc2ncccc21 | inconclusive: 0.146 µM [activator, full curve, poor fit]
14 | Cc1cccc(NC(=O)C(=O)NCc2ccccn2)c1 | inconclusive: 11.6 µM [activator, partial curve, poor fit]
15 | CC(=O)c1ccc(N2CCN(C(=O)CCCn3c(=O)[nH]c4ccc(Br)cc4c3=O)CC2)cc1 | inconclusive: 25.9 µM [falling, single point]
16 | CC(C)(C)OC(=O)N1CCC(C(=O)N2CCOCC2)CC1 | inconclusive: 14.6 µM [activator, partial curve, poor fit]
17 | CCCC(=O)Nc1nnc(S(=O)(=O)N(CC)c2ccccc2)s1 | inconclusive: 0.092 µM [activator, full curve, poor fit]
18 | O=C(Nc1ccccc1O)c1ccc(C(=O)c2ccccc2)o1 | inactive
19 | O=C(Nc1cccc(C(F)(F)F)c1)c1ccc(-n2cncn2)nc1 | inconclusive: 23.1 µM [falling, single point]
20 | Cc1nc2ccccc2n1CCCOc1ccccc1 | inconclusive: 32.6 µM [falling, single point]
21 | COc1ccc(-c2csc(Nc3ncccc3C)n2)cc1 | inconclusive: 6.51 µM [activator, partial curve]
22 | Cn1c2ccc(F)cc2c2ncn(CCCN(CCO)CCO)c(=O)c21 | inconclusive: 2.91 µM [activator, partial curve]

Row | SMILES | Potency
23 | O=C(CN1CCN(Cc2ccccc2Cl)CC1)N/N=C/C=C\c1ccccc1[N+](=O)[O-] | inconclusive: 18.4 µM [falling, partial curve, poor fit]
24 | O=C(NNc1cccc(Cl)n1)c1ccccc1CC[N+](=O)[O-] | inconclusive: 5.17 µM [falling, full curve, poor fit]
25 | CN(C)C(=O)CN1CCN(C(=O)CCl)CC1 | inconclusive: 23.1 µM [activator, partial curve]
26 | C=C(C(=O)c1ccccc1)C(NC(C)(C)C)c1ccccc1 (stereo not given) | inconclusive: 29.1 µM [falling, single point]
27 | CCC(=O)NC(c1ccc(OC)c(OC)c1)c1cc(Cl)c2cccnc2c1O (stereo not given) | active: 5.8 µM
28 | COc1ccc(NC(=S)Nc2ccc3nsnc3c2)cc1 | inactive
29 | c1ccc(COn2nnc3ccccc32)c(COn2nnc3ccccc32)c1 | inconclusive: 23.1 µM [falling, single point]
30 | COc1ccccc1NC(=O)COc1ccc(/C=N/NS(=O)(=O)c2ccc(C)cc2)cc1 | inconclusive: 18.4 µM [falling, partial curve]
31 | COCCNC(=O)c1c(N)n(-c2cccc(C)c2)c2nc3ccccc3nc12 | inconclusive: 20.6 µM [falling, partial curve, poor fit]
32 | COc1cccc(C(=O)NCC(=O)N2CCC(C)CC2)c1 | inconclusive: 10.3 µM [activator, partial curve, poor fit]
33 | Cc1ccc(OCc2ccc(-c3nc(C#N)c(N4CCC(C)CC4)o3)o2)cc1 | inactive
34 | COc1ccc(-c2noc(N3CCN(c4cccc(C)c4C)CC3)n2)cc1OC | inconclusive: 20.6 µM [falling, single point]
35 | Cc1nc2ccccn2c1C(=O)C(=O)Nc1cc(F)ccc1F | inconclusive: 13 µM [activator, partial curve]
36 | c1ccc(N2CCN(Cc3ccnc4ccccc34)CC2)cc1 | inconclusive: 23.1 µM [falling, partial curve]
37 | CCCCOc1ccc(C(=O)Nc2cc(C)c(OCC(=O)N3CCOCC3)c(C)c2)cc1 | inconclusive: 29.1 µM [falling, single point]
38 | COc1ccc2nc(NC(=O)C3CCN(C(=O)c4ccc(F)cc4)CC3)sc2c1 | inconclusive: 32.6 µM [falling, partial curve, poor fit]
39 | CCc1ccc(N2CC(C(=O)N/N=C/c3cc([N+](=O)[O-])ccc3O)CC2=O)cc1 (stereo not given) | inconclusive: 9.2 µM [falling, partial curve, poor fit]
40 | CN(C)Cc1c(-c2ccc(Cl)cc2)nc2ccccn12 | inconclusive: 8.2 µM [activator, partial curve, poor fit]
41 | CC(C)C[C@H]1CN=C(Nc2ccccc2)N1CCCC1CCCC1 | inactive
42 | CCN(CC)C(=O)CSc1nnc(-c2cnccn2)n1-c1ccc(C)cc1 | inconclusive: 0.13 µM [falling, partial curve, poor fit]
43 | Cc1ccc(S(=O)(=O)c2nc(S(C)(=O)=O)sc2N2CCCCCC2)cc1 | inactive
44 | COc1ccc(C(=O)NC2CCCN(Cc3ccc(Cl)cc3)C2)c(OC)c1 (stereo not given) | inconclusive: 32.6 µM [falling, partial curve, poor fit]

Single entries from above.
COc1ccccc1NC(=O)COc1ccc(/C=N/NS(=O)(=O)c2ccc(C)cc2)cc1 – Potency: inconclusive: 18.4 µM [falling, partial curve]
COCCNC(=O)c1c(N)n(-c2cccc(C)c2)c2nc3ccccc3nc12 – Potency: inconclusive: 20.6 µM [falling, partial curve, poor fit]
CCN(CC)C(=O)CSc1nnc(-c2cnccn2)n1-c1ccc(C)cc1 – Potency: inconclusive: 0.13 µM [falling, partial curve, poor fit]

The listing continues:

Row | SMILES | Potency
45 | Cc1cccc(N2CCN(S(=O)(=O)c3ccc4[nH]c(=O)ccc4c3)CC2)c1C | active: 18.4 µM
46 | O=C(CSc1ncnc2ccccc12)c1ccc2c(c1)OCCO2 | inconclusive: 29.1 µM [falling, single point]
47 | CC1=C(C(=O)OCc2ccc(C)cc2)C(c2ccccc2Cl)CC(=O)N1 (stereo not given) | inconclusive: 32.6 µM [falling, partial curve, poor fit]
48 | Cc1ccc(-c2noc(C3CCCN(C(=O)c4ccccc4Br)C3)n2)o1 (stereo not given) | inconclusive: 1.84 µM [activator, full curve, poor fit]
49 | C=CCN1CCN(C(=O)CCCc2ccccc2)CC1 | inconclusive: 20.6 µM [falling, single point]
50 | Cc1cccc(OCC(=O)Nc2ccc3c(c2)nc(CCNC(=O)c2ccco2)n3C)c1 | inactive
51 | Cc1nc2c3ccccc3nc(NNC(=O)CCC(=O)N3CCN(c4ccccc4)CC3)n2n1 | inconclusive: 6.51 µM [falling, full curve, poor fit]
52 | CON(c1nc(Cl)nc(N(C)C)n1)S(=O)(=O)c1ccccc1Cl | inconclusive: 1.16 µM [activator, full curve, poor fit]
53 | O=C(COc1ccc(Cl)cc1)N1CCN(c2cccc(C(F)(F)F)c2)CC1 | inconclusive: 16.4 µM [falling, single point]
54 | CC(C)c1ccc(-c2csc(NC(=O)c3cccs3)c2C(=O)O)cc1 | inconclusive: 10.3 µM [falling, partial curve]
55 | CCOC(=O)c1c(C)oc2nc(C)nc(NC(C)c3ccccc3)c12 (stereo not given) | inconclusive: 29.1 µM [activator, single point]
56 | O=C(c1cc(Br)ccc1Cl)N1CCN(c2ncccn2)CC1 | inconclusive: 0.058 µM [falling, full curve, poor fit]
57 | Cc1cnc(NC(=O)Cc2cccs2)s1 | inconclusive: 0.461 µM [falling, full curve, poor fit]
58 | COc1ccc(/C=N/OC(=O)Nc2ccc(Cl)cc2)c(OC)c1 | inconclusive: 23.1 µM [activator, partial curve]
59 | COc1ccc(/C=C/C(=O)CCC(=O)O)cc1 | inconclusive: 6.51 µM [activator, full curve]
60 | Cc1[nH]c2ccccc2c1/C=N/NC(=O)c1cc(-c2cccs2)[nH]n1 | inconclusive: 29.1 µM [falling, single point]
61 | COc1cc(OC)cc(N(C(=O)C2COc3ccccc3O2)C(C(=O)NC2CCCCC2)c2ccc(O)cc2)c1 (stereo not given) | inconclusive: 29.1 µM [falling, single point]
62 | Cc1nnc(NC(=O)c2ccc3ccccc3n2)s1 | inconclusive: 3.66 µM [activator, full curve]
63 | COc1ccc2oc(=O)cc(-c3cc4cccc(OC)c4o3)c2c1 | inactive
64 | c1ccc(CSc2nnc(-c3cccs3)o2)cc1 | inconclusive: 4.61 µM [activator, full curve, poor fit]
65 | CCn1c(C(=O)NCc2cccc(Br)c2)cc2oc3ccccc3c21 | inconclusive: 18.4 µM [activator, partial curve]
